The record followed here is paper PMC5016158.

Protein sequences, listed by entry. Tags and fused reporters are not part of them.
UniProt Q9NYV8: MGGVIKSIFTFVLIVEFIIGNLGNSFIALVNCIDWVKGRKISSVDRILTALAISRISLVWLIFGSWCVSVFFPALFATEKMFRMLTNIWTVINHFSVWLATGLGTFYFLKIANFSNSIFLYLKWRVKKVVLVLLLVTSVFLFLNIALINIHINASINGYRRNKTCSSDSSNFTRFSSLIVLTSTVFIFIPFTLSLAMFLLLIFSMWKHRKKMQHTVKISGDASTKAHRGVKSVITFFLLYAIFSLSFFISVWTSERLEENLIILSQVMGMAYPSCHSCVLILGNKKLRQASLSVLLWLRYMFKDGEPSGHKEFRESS

The target of the assay is β2AR-VN (UniProt P07550). As to the kind of experiment: split reporter; BiFC with Venus fragments VN and VC in live HEK-293T cells, confocal imaging.

No constants are given. Whether binding was seen depends on the method and setting. Binding seen in cells or lysates may run through a third protein. Some results given as binding are weak or reduced against the parent protein; the word gives no strength.

On to “TAS2R14-VC (from UniProt Q9NYV8 1-317) (receptor)”, for which the binding result is “binds”.
